Holding throughout (experiment): co-IP
In experiment [1] the target is FLAG-MDM2 expressed in H1299 cells (human) (UniProt Q00987).
Experiment [2] deals with FLAG-β-TrCP1 expressed in H1299 cells (human) (UniProt Q9Y297).
Experiment [3] addresses FLAG-MDM2(117-497), in vitro transcribed and translated (human) (UniProt Q00987).

Chains of the proteins cited; added tags and fusions are not shown. Lines headed by an entry give the natural chain unless they say otherwise; changes in a name come on top. A line that says so, or that is headed by a name, gives the form on record, which may keep a tag or linker. Residues count along the entry.
FLAG-MDM2(117-497), in vitro transcribed and translated (Q00987, residues 111-491): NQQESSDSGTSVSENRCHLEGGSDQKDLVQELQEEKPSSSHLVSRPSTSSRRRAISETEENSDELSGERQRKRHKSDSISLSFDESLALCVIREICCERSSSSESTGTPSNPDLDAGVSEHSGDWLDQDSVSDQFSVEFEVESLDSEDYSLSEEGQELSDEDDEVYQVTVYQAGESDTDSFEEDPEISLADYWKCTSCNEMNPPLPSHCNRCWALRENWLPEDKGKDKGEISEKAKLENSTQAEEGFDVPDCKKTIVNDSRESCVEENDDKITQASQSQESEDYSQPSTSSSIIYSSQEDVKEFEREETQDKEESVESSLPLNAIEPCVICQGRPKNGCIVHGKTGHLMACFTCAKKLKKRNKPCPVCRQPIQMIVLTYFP
FLAG-MDM2 expressed in H1299 cells (Q00987, form named): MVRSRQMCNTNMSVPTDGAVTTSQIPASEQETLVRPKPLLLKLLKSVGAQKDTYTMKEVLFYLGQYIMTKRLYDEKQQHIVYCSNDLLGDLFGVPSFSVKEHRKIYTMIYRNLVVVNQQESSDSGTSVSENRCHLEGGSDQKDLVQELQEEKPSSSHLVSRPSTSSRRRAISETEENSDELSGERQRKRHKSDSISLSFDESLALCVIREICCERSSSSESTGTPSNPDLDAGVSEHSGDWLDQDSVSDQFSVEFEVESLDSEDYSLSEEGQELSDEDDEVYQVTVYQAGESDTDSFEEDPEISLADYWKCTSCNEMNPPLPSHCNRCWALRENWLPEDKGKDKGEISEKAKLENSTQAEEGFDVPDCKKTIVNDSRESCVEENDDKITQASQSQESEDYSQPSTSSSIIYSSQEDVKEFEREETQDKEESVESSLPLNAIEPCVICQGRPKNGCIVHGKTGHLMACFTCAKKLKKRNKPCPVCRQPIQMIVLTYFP
FLAG-β-TrCP1 expressed in H1299 cells (Q9Y297, form named): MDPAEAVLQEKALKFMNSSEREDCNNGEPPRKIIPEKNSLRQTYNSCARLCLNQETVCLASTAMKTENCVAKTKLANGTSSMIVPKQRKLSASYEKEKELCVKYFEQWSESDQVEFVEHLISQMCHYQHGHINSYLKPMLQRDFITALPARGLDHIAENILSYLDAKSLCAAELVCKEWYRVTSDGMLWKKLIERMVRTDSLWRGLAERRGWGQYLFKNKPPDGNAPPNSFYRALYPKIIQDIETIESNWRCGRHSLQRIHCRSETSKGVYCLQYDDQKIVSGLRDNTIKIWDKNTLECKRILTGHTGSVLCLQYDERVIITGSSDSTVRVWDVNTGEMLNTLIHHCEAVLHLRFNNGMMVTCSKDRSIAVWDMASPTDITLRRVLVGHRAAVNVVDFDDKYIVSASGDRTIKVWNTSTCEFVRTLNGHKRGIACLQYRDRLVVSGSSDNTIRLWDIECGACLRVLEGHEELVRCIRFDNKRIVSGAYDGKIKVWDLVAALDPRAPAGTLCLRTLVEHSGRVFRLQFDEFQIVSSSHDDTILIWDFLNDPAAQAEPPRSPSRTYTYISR

These results are taken from article doi:10.1101/286708.

Where a chain is given by its changes, count along the chain named. In names and notes the source's numbering stands. These are yes or no findings as the source states them, for the method shown. In cells and extracts the contact can be indirect. Some results given as binding are weak or reduced against the parent protein; the word gives no strength. Where a sequence is shown, tags or fusion partners need not be part of it.

B1: myc-PER2 expressed in H1299 cells (protein, UniProt O15055-1 1-1255)
chain: MNGYAEFPPSPSNPTKEPVEPQPSQVPLQEDVDMSSGSSGHETNENCSTGRDSQGSDCDDSGKELGMLVEPPDARQSPDTFSLMMAKSEHNPSTSGCSSDQSSKVDTHKELIKTLKELKVHLPADKKAKGKASTLATLKYALRSVKQVKANEEYYQLLMSSEGHPCGADVPSYTVEEMESVTSEHIVKNADMFAVAVSLVSGKILYISDQVASIFHCKRDAFSDAKFVEFLAPHDVGVFHSFTSPYKLPLWSMCSGADSFTQECMEEKSFFCRVSVRKSHENEIRYHPFRMTPYLVKVRDQQGAESQLCCLLLAERVHSGYEAPRIPPEKRIFTTTHTPNCLFQDVDERAVPLLGYLPQDLIETPVLVQLHPSDRPLMLAIHKKILQSGGQPFDYSPIRFRARNGEYITLDTSWSSFINPWSRKISFIIGRHKVRVGPLNEDVFAAHPCTEEKALHPSIQELTEQIHRLLLQPVPHSGSSGYGSLGSNGSHEHLMSQTSSSDSNGHEDSRRRRAEICKNGNKTKNRSHYSHESGEQKKKSVTEMQTNPPAEKKAVPAMEKDSLGVSFPEELACKNQPTCSYQQISCLDSVIRYLESCNEAATLKRKCEFPANVPALRSSDKRKATVSPGPHAGEAEPPSRVNSRTGVGTHLTSLALPGKAESVASLTSQCSYSSTIVHVGDKKPQPELEMVEDAASGPESLDCLAGPALACGLSQEKEPFKKLGLTKEVLAAHTQKEEQSFLQKFKEIRKLSIFQSHCHYYLQERSKGQPSERTAPGLRNTSGIDSPWKKTGKNRKLKSKRVKPRDSSESTGSGGPVSARPPLVGLNATAWSPSDTSQSSCPAVPFPAPVPAAYSLPVFPAPGTVAAPPAPPHASFTVPAVPVDLQHQFAVQPPPFPAPLAPVMAFMLPSYSFPSGTPNLPQAFFPSQPQFPSHPTLTSEMASASQPEFPSRTSIPRQPCACPATRATPPSAMGRASPPLFQSRSSSPLQLNLLQLEEAPEGGTGAMGTTGATETAAVGADCKPGTSRDQQPKAPLTRDEPSDTQNSDALSTSSGLLNLLLNEDLCSASGSAASESLGSGSLGCDASPSGAGSSDTSHTSKYFGSIDSSENNHKAKMNTGMEESEHFIKCVLQDPIWLLMADADSSVMMTYQLPSRNLEAVLKEDREKLKLLQKLQPRFTESQKQELREVHQWMQTGGLPAAIDVAECVYCENKEKGNICIPYEEDIPSLGLSEVSDTKEDENGSPLNHRIEEQT
For B1, the binding result in experiment [1] and in experiment [2] was “binds” each time.

B2: myc-PER2(S662A) expressed in H1299 cells (protein, UniProt O15055-1 1-1255)
chain: B1 chain with S662A
In the case of B2, the binding entry in experiment [1] is on record as “binds”.

B3: myc-PER2, in vitro transcribed and translated (protein, UniProt O15055-1 1-1255)
chain: B1 chain
Take B3: in experiment [3], the binding entry is given as “binds”.
